Reference: paper PMC9240020
These are yes or no findings as the source states them, for the method shown. Binding seen in cells or lysates may run through a third protein. Some binding calls cover weakened binding; strength is not graded here. Sequences can lack the tags named with a protein.

By UniProt entry, the sequences of proteins in these tests, tags left out.
UniProt P04147: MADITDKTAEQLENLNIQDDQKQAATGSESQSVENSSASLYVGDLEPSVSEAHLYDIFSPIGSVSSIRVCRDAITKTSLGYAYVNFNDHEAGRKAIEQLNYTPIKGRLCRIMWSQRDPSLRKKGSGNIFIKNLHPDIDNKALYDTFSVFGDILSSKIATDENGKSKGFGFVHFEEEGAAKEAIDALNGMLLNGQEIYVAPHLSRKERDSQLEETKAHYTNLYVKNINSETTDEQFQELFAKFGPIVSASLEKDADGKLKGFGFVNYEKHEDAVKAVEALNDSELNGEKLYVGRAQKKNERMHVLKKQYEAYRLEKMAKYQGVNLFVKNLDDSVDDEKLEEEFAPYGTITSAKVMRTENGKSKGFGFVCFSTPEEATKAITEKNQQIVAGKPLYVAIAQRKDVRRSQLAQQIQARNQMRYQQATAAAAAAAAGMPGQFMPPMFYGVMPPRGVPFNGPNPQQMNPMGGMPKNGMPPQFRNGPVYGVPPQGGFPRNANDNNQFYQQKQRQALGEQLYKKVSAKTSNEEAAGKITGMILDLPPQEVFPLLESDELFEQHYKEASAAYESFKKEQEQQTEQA

Legend:
[1] = biological target: Pab1 (poly(A)-binding protein) (S. cerevisiae (endogenous in BY4741 background)) (UniProt P04147); assay: proximity ligation; in situ PLA on fixed, Zymolyase-digested yeast cells with antibodies against Pab1 and Flag; cells not treated with 2-DG
[2] = biological target: Pab1 (poly(A)-binding protein) (S. cerevisiae (endogenous in BY4741 background)) (UniProt P04147); assay: proximity ligation; in situ PLA on fixed, Zymolyase-digested yeast cells with antibodies against Pab1 and Flag; cells treated with 400 mM 2-DG for 2 h

binding [2]: binds
B1: Lsm7-5xFlag (protein, UniProt P53905 1-115)
chain: MHQQHSKSENKPQQQRKKFEGPKREAILDLAKYKDSKIRVKLMGGKLVIGVLKGYDQLMNLVLDDTVEYMSNPDDENNTELISKNARKLGLTVIRGTILVSLSSAEGSDVLYMQK
binding [1]: no binding (condition: without 2-DG treatment)
